# Test results as given in PubChem BioAssay AID493014 (National Center for Advancing Translational Sciences (NCATS), 2011).
# The campaign covered roughly 340,000 compounds. About 170 (0.05%) were called active. Inconclusive results, whose numbers are uncertain, are shown with a selection of clear calls. Calls follow the shape of the dose curve; as a rule, active = well fitted inhibition curve with a large enough effect in the signal ratio, with a control signal flat (not every such curve was filed as active); inconclusive = small, poorly fitted or top-dose-only effect, or effect the other way, or a change in a side signal; inactive = flat fitted curve, though single readings scatter; the % refers to the signal ratio. Potencies beside an inconclusive call are fits to weak or partial responses and may not hold up.
# Assay: qHTS Assay to Find Inhibitors of Chronic Active B-Cell Receptor Signaling;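 as to activity change, negative = inhibition: plate controls were basal doxycycline-induced cells for no effect and cells given 10 µM MG132 for full effect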
# Settings: ABC-DLBCL IkBa-CBG/CBR reporter, luminescence ratio (green luciferase fused to IkBa over red control in TMD8 lymphoma cells), 4 h; activity change, negative = inhibition: at 46.1 µM (top of the series) unless noted
# How it was run: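 TMD8 ABC-DLBCL cells carrying doxycycline-inducible green luciferase fused to IkappaBalpha plus unfused red luciferase were exposed to compounds (up to 46 uM) for 4 hrs at 37C. Activity came from the overlap-corrected green/red luminescence ratio.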
# Potency is read from the fitted curve at half-maximal effect.
Compound,"activity change, negative = inhibition",Potency
c1cc2c3c(cccc3c1)C(N1CCCCC1)=N2,inactive,–
O=C(COn1nnc2ccccc21)NCC1CCCCC1,inconclusive: 20%,–
CCOc1ccc(OCCCCN2CCCC2)cc1,inconclusive: -1.79%,–
COc1ccc(-c2cc(C(=O)N3CCCC3)no2)cc1OC,–,"inconclusive: 31.6 µM [falling, single point]"
CC(C)[C@H](N)c1cn([C@@H](CO)C(=O)N2CCNCC2)nn1,inconclusive: -1.4%,–
O=C(COC(=O)c1ccc(Cl)c(S(=O)(=O)N2CCCC2)c1)NCc1cccs1,inconclusive: 6.25%,–
COc1ccc(OCCNS(=O)(=O)c2ccc3oc4ccccc4c3c2)cc1,inconclusive: 0.182%,–
Nc1c(C(=O)c2ccccc2)sc2nsc(SCCN3CCCC3)c12,–,"inconclusive: 3.16 µM [falling, partial curve, poor fit]"
Oc1ccccc1C1CC(c2cccs2)=NC(c2cccc(Br)c2)N1 (configuration not stated),–,"inconclusive: 5.62 µM [falling, single point]"
O=S(=O)(Cc1cc(Cl)nc(-c2ccccc2)n1)c1ccccc1,inactive,–
C=CCN(c1nc(C)cc(OC)n1)S(=O)(=O)c1ccc(C)cc1,inconclusive: -0.923%,–
Brc1ccc(-c2nc(-c3ccncc3)no2)o1,inconclusive: 5.74%,–
COc1ccc(-c2csc(N=C(N)N)n2)cc1,inactive,–
C#CCOCCOCCOCCNc1nc(N2CCN(C(=O)[C@H](CCC(=O)O)n3cc(C(N)CO)nn3)CC2)nc(N2CCN(C(=O)[C@H](CCC(=O)O)n3cc(C(N)CC(C)C)nn3)CC2)n1 (some centres not stated),inconclusive: -8.51%,–
COc1ccc2ccccc2c1/C=N/NC(=O)c1ccc(C)nc1,–,"inconclusive: 31.6 µM [falling, single point]"
C=CCNC(=S)NNC(=O)c1ccc([N+](=O)[O-])cc1,inactive,–
COc1ccc(-c2ccc(-c3cc(=O)oc4cc(OC)c(OC)c(OC)c34)cc2)cc1OC,inactive,–
Cc1ccc(/C=N/NC(=O)c2cc(-c3ccncc3)nc3ccccc23)o1,–,"inconclusive: 12.6 µM [falling, partial curve]"
COc1cc(NC(=O)C/C(C)=N/NC(=O)c2cccc(O)c2)c(OC)cc1Cl,–,"inconclusive: 20.6 µM [falling, partial curve]"
COc1cccc(N(CC(=O)N2CCN(C)CC2)S(=O)(=O)c2ccc(C)cc2)c1,inactive,–
Clc1cccc(OCCN2CCOCC2)c1,inconclusive: -0.104%,–

Compound,"activity change, negative = inhibition",Potency
CCN(CC)CCNC(=O)CCc1c(C)nc2c(c(C)nn2-c2ccc(C)c(C)c2)c1C,inconclusive: -3.85%,–
O=C(O)c1ccc2c3c(ncnc13)-c1ccccc1C2=O,inconclusive: 0.711%,–
CC(=O)Nc1cccc(NC(=O)C(=O)Nc2ccc3c(c2)N(C(=O)C2CC2)CCC3)c1,–,"inconclusive: 18.4 µM [falling, partial curve]"
COC(=O)CCC(=O)Nc1ccc2oc3c(c2c1)CCCC3,inconclusive: -17%,–
O=C(CSc1cn[nH]n1)Nc1nc2ccccc2s1,–,"inconclusive: 31.6 µM [rising, single point]"
COc1ccc(CNc2nc(NCc3ccc(OC)cc3)n(S(C)(=O)=O)n2)cc1,–,"inconclusive: 32.6 µM [falling, partial curve, poor fit]"
CSc1ccc(CN(C)C(=O)CN2C(=O)NC3(CCCC3)C2=O)cc1,inconclusive: -13.1%,–
Cc1ccccc1C(=O)NNC(=O)/C=C/c1ccccc1,–,"inconclusive: 35.5 µM [rising, partial curve]"
Cc1ccc2nc(-c3ccc(NC(=O)CCS(=O)(=O)c4ccccc4)cc3)sc2c1,inconclusive: 10.7%,–
CCCCn1c(-c2cccnc2)nc2cc3[nH]c(=O)c(C(C)C)nc3cc21,inconclusive: -1.61%,–
Cc1ccc(C(=O)Nc2cccc(-c3cnc4ccccc4n3)c2)cc1,inactive,–
CCSc1nnc(NC(=O)C2Cc3ccccc3CN2S(=O)(=O)CC)s1 (configuration not stated),inconclusive: 0.437%,–
NNC(=O)COc1ccccc1[N+](=O)[O-],–,"inconclusive: 7.94 µM [rising, partial curve, poor fit]"
C=CCn1cnc2sc(C(=O)Nc3ccccc3OC)c(C)c2c1=O,inconclusive: 16.6%,–
Clc1ccc(Oc2cnc3ccccc3n2)cc1,–,"inconclusive: 35.5 µM [rising, single point]"
CCOC(=O)Cn1cc(/C=N/NC(=O)c2cc3ccccc3o2)c2ccccc21,inconclusive: 15.1%,–
COC(=O)/C=C1/S/C(=N/NC(=O)c2ccccc2C)NC1=O,inconclusive: 322%,–
C/C(=N\NC(=O)c1ccc(NS(=O)(=O)c2cccs2)cc1)c1ccccn1,–,"inconclusive: 31.6 µM [rising, single point]"
COc1ccccc1N1CCN(C(=O)c2ccc(-c3ccccc3)cc2)CC1,–,"inconclusive: 12.6 µM [falling, partial curve, poor fit]"
CC/C(=N\NC(=S)Nc1cc(C)ccc1C)c1ccc(OC(F)F)cc1,inactive,–
Cc1nonc1OC(C)CNCCNc1ccc([N+](=O)[O-])cc1 (configuration not stated),inconclusive: 0.95%,–

# 5 entries already listed, ordered by number of heavy atoms, smallest number first:
Compound,"activity change, negative = inhibition",Potency
Cc1ccccc1C(=O)NNC(=O)/C=C/c1ccccc1,–,"inconclusive: 35.5 µM [rising, partial curve]"
COC(=O)/C=C1/S/C(=N/NC(=O)c2ccccc2C)NC1=O,inconclusive: 322%,–
Cc1ccc(C(=O)Nc2cccc(-c3cnc4ccccc4n3)c2)cc1,inactive,–
C/C(=N\NC(=O)c1ccc(NS(=O)(=O)c2cccs2)cc1)c1ccccn1,–,"inconclusive: 31.6 µM [rising, single point]"
CCOC(=O)Cn1cc(/C=N/NC(=O)c2cc3ccccc3o2)c2ccccc21,inconclusive: 15.1%,–

# Carrying on.

Compound,"activity change, negative = inhibition",Potency
CCOC(=O)C1(Cc2ccc(OC)cc2)CCN(S(C)(=O)=O)CC1,inconclusive: 15.6%,–
O=Cc1cc2ccccc2nc1SCc1ccc(Cl)c(Cl)c1,inconclusive: -3.35%,–
COc1cc2c(cc1NC(=O)COC(=O)[C@@H](NC(=O)c1ccccc1)C(C)C)oc1ccccc12,inactive,–
Cc1ccc(Nc2cc(C)nn2-c2nc(C)cc(=O)[nH]2)cc1,–,"inconclusive: 2.24 µM [falling, full curve]"
Nc1cc(C2CCCC2)nn1-c1ccccc1,inconclusive: -2.2%,–
CCOc1ccc(NC(=O)C/C(C)=N/NC(=O)c2cnccn2)cc1,–,"inconclusive: 12.6 µM [falling, partial curve]"
COc1ccc(/C=C2/N=C(SCC(=O)Nc3cc(C)on3)N(c3ccccc3)C2=O)cc1,inconclusive: 0.302%,–
CN1CC(=O)Nc2cc(C(=O)O)ccc21,inactive,–
Cc1cc(OCC(=O)NC(C)(C)C)ccc1Cl,inconclusive: 3.37%,–
Cc1ccc(CN2CCN(C(=O)c3cccc4ccccc34)CC2)cc1,–,"inconclusive: 7.08 µM [falling, partial curve, poor fit]"
CCn1c(-c2ccccc2SC)n[nH]c1=S,inactive,–
COc1ccc2nc(Nc3sc4c(c3C(N)=O)CCCC4)sc2c1,inconclusive: -18.9%,–
CCOC(=O)N1CCN(C(=O)COC(=O)c2cc(C)ccc2C)CC1,inactive,–
CN(C)C(=O)c1ccc(-c2cc(C(F)(F)F)nn2C)s1,inconclusive: 4.05%,–
CCc1ccc(NC(=O)c2n[nH]c(=O)c3ccccc23)cc1,inconclusive: 16%,–
Cc1cccc(NC(=S)NC(NC(=O)c2ccco2)C(Cl)(Cl)Cl)c1 (configuration not stated),–,"inconclusive: 20.6 µM [rising, partial curve, poor fit]"
COc1cccc(-n2ccnc2SCC(=O)N2CCCc3ccccc32)c1,inactive,–
CC(C)(CC(=O)O)CC(=O)N1CCN(c2nc3ccc(Cl)cc3s2)CC1,inactive,–
CC(C)C(=O)Nc1nnc(SCC(=O)NCc2ccc3c(c2)OCO3)s1,inconclusive: 0.136%,–
Nc1nonc1C(=O)NCCNC(=O)c1cccc(Cl)c1,inactive,–
Cc1cccc([C@@H](NC(=O)OC(C)(C)C)C(=O)OC(C)(C)C)c1,inconclusive: 5.41%,–

Compound,"activity change, negative = inhibition",Potency
CC(/C=C/c1ccccc1)=N\NC(N)=S,–,"inconclusive: 3.55 µM [cytotoxic, full curve, poor fit]"
COc1ccccc1N1CCN(c2nc(C)nc3c2oc2ccccc23)CC1,–,"inconclusive: 10 µM [falling, partial curve]"
O=C(CCN1CCc2ccccc2C1)c1ccc2c(c1)OCCO2,inconclusive: 11.2%,–
CN1CCN(S(=O)(=O)c2ccc(N3CCN(C(=O)c4ccccc4)CC3)nc2)CC1,inconclusive: 3.54%,–
Cc1ccc(OCC(O)CNCc2ccc(F)cc2)cc1 (configuration not stated),inconclusive: 12.8%,–
O=C(O)c1cc(N/N=C/c2ccc(OCc3ccccc3)cc2)ccc1Cl,inconclusive: -16.4%,–
O=C(NCC(=O)N1CCCCCC1)c1ccc(Br)cc1,inactive,–
COc1ccc(S(=O)(=O)N2c3ccccc3OCC2c2ccccc2)cc1 (configuration not stated),inactive,–
Oc1ccc(CCNc2c3ccccc3nc3ccccc23)cc1O,inconclusive: 8.36%,–
CCOc1cc(/C=C/C(=O)O)ccc1OCc1ccccc1,inconclusive: -0.0912%,–
CCc1cc(Cn2nc(-c3ccccc3)cc2C(=O)NCCOC)on1,–,"inconclusive: 8.2 µM [falling, partial curve, poor fit]"
O=C1N/C(=C/c2cccs2)C(=O)N1Cc1ccc(Br)cc1,inconclusive: -1.01%,–
Cc1ccc(/C=N/Nc2ccnc3cc(Cl)ccc23)c(C)c1,inconclusive: 16.9%,–
CSc1cccc(NS(=O)(=O)c2ccc(F)cc2)c1,inconclusive: -1.66%,–
Cc1nn(CC(=O)NC2CCS(=O)(=O)C2)c(C)c1[N+](=O)[O-] (configuration not stated),inconclusive: 6.56%,–
COC(=O)c1ccc(N2C(=O)CC(NCc3ccccc3)C2=O)cc1 (configuration not stated),inconclusive: -0.202%,–
COc1ccc(C)cc1NC(=O)Nn1cnnc1,–,"inconclusive: 2.59 µM [falling, single point]"
CCN(CC(=O)Nc1c(F)cccc1F)C(=O)c1ccc2ccccc2n1,inactive,–
CCN(CC)C(=O)[C@H]1C[C@H](CC(=O)NC/C=C(\C)CCC=C(C)C)C(=O)N2CCc3c([nH]c4cc(-c5ccco5)ccc34)[C@]12C,inactive,–
